According to patent publication US11352392B2, “Artificially synthesized peptide H-473 and use thereof” (CHINA WEST NORMAL UNIVERSITY, priority 2018, dated 2022):
At least one compound was matched to its structure with a doubt left.

Test system: asthma in mice
Assay: Effect on asthma in mice (OVA sensitization, BALF cell count)
Assay type: in vivo, BALB/C mice
Details: 18 days after atomization
Experimental: At day 35 of the experiment, the test samples were respectively given one hour prior to OVA atomization.
5.6.1 Asthma model: mice were injected intraperitoneally with 0.2 ml of a sensitizing solution (ovalbumin OVA 80 μg+ Adjuvant liquid aluminum 0.1 ml) twice on days 0 and 14. From day 24 after the first sensitization, 2.5% OVA was aerosolized and inhaled for 45 min once daily for 18 days.
5.6.2 Administration: the corresponding test sample was given 1 h before the OVA solution atomization challenge since day 35 of the experiment. H-473 15 μg/kg group and H-473 30 μg/kg group were injected intramuscularly, respectively. The positive control group was injected with dexamethasone 1 mg/kg intramuscularly. Normal control group and model control group were injected with saline intramuscularly.
General global observations: respiratory rate, whether there was dyspnea, cyanosis, dysphoria and convulsion.
Bronchoalveolar lavage fluid (BALF) cells were counted and classified (EOS ratio elevated or not).

C[C@@H]1C[C@H]2[C@@H]3CCC4=CC(=O)C=C[C@]4(C)[C@@]3(F)[C@@H](O)C[C@]2(C)[C@@]1(O)C(=O)CO [Positive control, dexamethasone, reference compound]
General observations (dyspnea, dysphoria and other reactions): did not show abnormal reactions
